Source: publication PMC5296656
No constants are given. Whether binding was seen depends on the method and setting. In cells and extracts the contact can be indirect. Binding can be weak; no strength is given. Tags and fused reporters may be left off the sequences shown.

Biological target: T1, S. cerevisiae GST-Acl4 (wild type) (S. cerevisiae) (UniProt Q03771)
T1 sequence: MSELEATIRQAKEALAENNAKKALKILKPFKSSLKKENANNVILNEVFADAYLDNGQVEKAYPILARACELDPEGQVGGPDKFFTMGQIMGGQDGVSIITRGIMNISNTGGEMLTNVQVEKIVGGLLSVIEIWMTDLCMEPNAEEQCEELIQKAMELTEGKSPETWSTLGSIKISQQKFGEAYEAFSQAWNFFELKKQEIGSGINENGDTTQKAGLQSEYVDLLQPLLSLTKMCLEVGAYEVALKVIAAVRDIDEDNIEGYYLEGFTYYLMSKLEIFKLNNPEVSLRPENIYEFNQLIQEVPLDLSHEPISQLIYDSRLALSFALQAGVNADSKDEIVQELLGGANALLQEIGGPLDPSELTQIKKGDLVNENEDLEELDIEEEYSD
Assay: pull-down; GST-Acl4 (bait) coexpressed with SUMO-RpL4^ΔEXT in E. coli; cleared lysate on glutathione sepharose, 1 h 4 °C, 20 mM TRIS pH 8.0, 100 mM NaCl, 5 mM DTT; glutathione elution, Coomassie

- binding: binds
Substance: S. cerevisiae SUMO-RpL4^ΔEXT (domain or fragment)
